Results are given in words; binding and its absence hold for the method and conditions named. Binding seen in cells or lysates may run through a third protein. Binding calls can cover weak binding; strength is not graded here.
Biological target: glutathione S-transferase (GST)-fused Xenopus ADF/cofilin (XAC) (Xenopus)
Assay: pull-down

B1: gelsolin (protein, UniProt P14885 1-417)
chain: FISKMGYPKQTQVQVLPESGETPLFKQFFKNWRDKEATDGMGVAYVPNHIAKIENVPFDVTVLHESPAMAAQHGMVDDGSGKKQIWRIENCEKVPVLESHYGQFYGGDSYIILYHYKSGGKQGQIIYTWQGDDSTKDEITASAILSAQLDEELGGGPVQVRVVQGKEPAHLISLFGGKPMIIYKGGTSREGGQTKDANVRLFQVRTSSSGFSRAVEVDNTASNLNSNDAFVLTTPSASYLWVGQGSTNVEKNGAKELLKILGVSASEIPEGQETDDFWGALGGKADYRTSARLKDKLNAHPPRLFACSNKTGRFIIEEVPGEISQDDLATDDVMLLDTWDQVYVWVGNEAQEDEKKEAIASAYKYIESDPANRDKRTPVAITKQGFEPPTFIGWFLGWEADYWDVDPLERAMAGLSS
Question: With B1 as the binder, how does the binding read?
Answer: binds
